Values quoted from earlier work in US6689388B2, “Microencapsulated delivery system for high viscosity fluids” (Lipoprotein Technologies, Inc., priority 2000, dated 2004).
At least one structure is not confirmed: it was looked up by name or label, or the drawing left a doubt.

What was measured:
[1] = target: cyclooxygenase-2 induction
[2] = tested on: arachidonic acid-induced inflammatory ear edema; settings: mice
skin tumor formation = settings: following initiation with a chemical challenge

CC(C)=CCC1C(=O)C(C(=O)CC(C)C)=C(O)C(O)(CC=C(C)C)C1=O (stereo not shown) [humulone]
IC50 ([1]; TNFalpha-dependent induction, read-out: IC(50), suppression of TNFalpha-dependent cyclooxygenase-2 induction): ~0.03 µM
suppression of cyclooxygenase-2 induction ([1]; at the level of transcription): suppress
inhibition of arachidonic acid-induced inflammatory ear edema [2]: inhibited
inhibition of skin tumor formation (skin tumor formation): inhibited
